Test results published in patent publication US20220288010A1, “METHODS FOR REDUCING REWARDING EFFECTS OF MORPHINE WITHOUT AFFECTING ITS ANALGESIC EFFECTS” (The Board of Trustees of the Leland Stanford Junior …, priority 2019, published 2022).

Test system: mice
Experiment: morphine conditioned place preference (CPP) paradigm to assess morphine reward
Format: in vivo
Text: The ability of a MAGL inhibitor to attenuate the rewarding effect of an opioid can also be assessed in animal models. For example, a morphine conditioning place preference (CPP) paradigm can be used as a preclinical model to measure reward, in which mice are conditioned to associate a particular chamber with the rewarding effects of morphine (see, e.g., Example 1). Reward, e.g., as measured by a preference for the morphine chamber, can be assessed at different phases of morphine conditioning, for example to assess if a MAGL inhibitor decreases or inhibits the establishment of the rewarding effect or of its maintenance or expression.
Endocannabinoid signaling is primarily regulated by MAGL and FAAH, the two enzymes responsible for catabolizing the endogenous cannabinoids, 2-AG and anandamide. Although some studies have shown that inhibition of these enzymes reduces certain aspects of morphine withdrawal, no studies exist that have examined their role in morphine reward. We utilized the morphine conditioned place preference (CPP) paradigm, to assess morphine reward, in which mice are conditioned to associate a particular chamber with the rewarding effects of morphine (FIG. 1A). […]

Structure (SMILES)	Day 1 vs Day 6, Bonferroni post hoc test, acquisition of morphine CPP (FIG. 3B) ((R)-3t before each conditioning session, n=11)	Day 1 vs Day 6, Bonferroni post hoc test, acquisition of morphine CPP (FIG. 1C) (JZL-184 prior to each morphine conditioning session, n=8)
Cc1ncccc1-c1cc(F)cc(N2C[C@H](N3CCN(c4ncccn4)CC3)CC2=O)c1 [(R)-3t, (4R)-1-[3-fluoro-5-(2-methylpyridin-3-yl)phenyl]-4-[4-(pyrimidin-2-yl)piperazin-1-yl]pyrrolidin-2-one]	not significant	–
O=C(Oc1ccc([N+](=O)[O-])cc1)N1CCC(C(O)(c2ccc3c(c2)OCO3)c2ccc3c(c2)OCO3)CC1 [JZL-184, (4-nitrophenyl) 4-[bis(1,3-benzodioxol-5-yl)-hydroxymethyl]piperidine-1-carboxylate]	–	no significant
